The other results are listed elsewhere or left out.

By UniProt entry, the sequences of proteins in these tests, tags left out. Where a name states a change or a piece, a line headed by the entry shows the natural chain unless it says otherwise.
UniProt P19971: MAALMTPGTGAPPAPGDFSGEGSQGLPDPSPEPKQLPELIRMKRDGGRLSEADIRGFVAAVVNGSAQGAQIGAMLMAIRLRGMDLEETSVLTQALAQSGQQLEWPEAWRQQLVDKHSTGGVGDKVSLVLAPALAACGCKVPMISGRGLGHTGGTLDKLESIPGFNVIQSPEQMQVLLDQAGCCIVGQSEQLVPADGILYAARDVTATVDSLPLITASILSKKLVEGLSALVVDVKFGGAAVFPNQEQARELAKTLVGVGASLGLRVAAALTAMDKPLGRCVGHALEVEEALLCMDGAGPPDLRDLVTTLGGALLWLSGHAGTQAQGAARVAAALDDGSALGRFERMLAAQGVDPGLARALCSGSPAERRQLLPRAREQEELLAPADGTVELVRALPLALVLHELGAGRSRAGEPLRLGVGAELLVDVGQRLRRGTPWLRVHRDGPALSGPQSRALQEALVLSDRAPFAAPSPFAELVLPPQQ
UniProt Q8TBC4: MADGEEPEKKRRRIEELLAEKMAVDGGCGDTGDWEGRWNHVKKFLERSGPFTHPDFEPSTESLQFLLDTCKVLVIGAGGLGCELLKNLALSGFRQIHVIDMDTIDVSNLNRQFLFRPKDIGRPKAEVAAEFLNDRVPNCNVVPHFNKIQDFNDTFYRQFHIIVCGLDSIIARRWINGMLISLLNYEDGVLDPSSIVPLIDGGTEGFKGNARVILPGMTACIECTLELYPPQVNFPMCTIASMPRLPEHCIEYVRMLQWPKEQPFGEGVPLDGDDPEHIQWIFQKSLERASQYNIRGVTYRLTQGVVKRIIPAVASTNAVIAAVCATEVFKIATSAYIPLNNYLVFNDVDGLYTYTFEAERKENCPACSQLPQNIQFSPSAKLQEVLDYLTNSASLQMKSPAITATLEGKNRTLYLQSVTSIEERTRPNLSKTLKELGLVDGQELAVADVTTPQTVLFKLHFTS
UniProt O43396: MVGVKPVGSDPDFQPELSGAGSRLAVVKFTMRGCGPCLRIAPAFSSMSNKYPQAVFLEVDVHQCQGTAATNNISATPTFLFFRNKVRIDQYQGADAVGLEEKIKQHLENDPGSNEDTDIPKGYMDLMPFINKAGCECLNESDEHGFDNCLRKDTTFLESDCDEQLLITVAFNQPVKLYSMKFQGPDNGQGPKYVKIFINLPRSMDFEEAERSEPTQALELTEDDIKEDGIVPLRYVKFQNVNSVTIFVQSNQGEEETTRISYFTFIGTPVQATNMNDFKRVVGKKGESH
UniProt Q2T9J0: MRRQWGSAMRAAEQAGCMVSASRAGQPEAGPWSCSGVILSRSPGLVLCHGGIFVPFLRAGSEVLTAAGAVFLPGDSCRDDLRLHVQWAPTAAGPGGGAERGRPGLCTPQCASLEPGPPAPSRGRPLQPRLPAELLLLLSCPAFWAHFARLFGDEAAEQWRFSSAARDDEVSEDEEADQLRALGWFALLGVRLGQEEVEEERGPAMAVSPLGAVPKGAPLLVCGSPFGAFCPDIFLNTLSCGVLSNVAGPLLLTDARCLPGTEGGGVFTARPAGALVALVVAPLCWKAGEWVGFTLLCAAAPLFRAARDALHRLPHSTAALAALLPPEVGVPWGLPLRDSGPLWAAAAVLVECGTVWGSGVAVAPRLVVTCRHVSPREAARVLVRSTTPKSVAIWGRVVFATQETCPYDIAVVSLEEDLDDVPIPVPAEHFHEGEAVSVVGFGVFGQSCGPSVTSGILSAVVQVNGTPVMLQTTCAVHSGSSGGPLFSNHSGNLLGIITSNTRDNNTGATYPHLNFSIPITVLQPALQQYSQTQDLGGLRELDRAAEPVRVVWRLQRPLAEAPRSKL
UniProt Q8NBS9: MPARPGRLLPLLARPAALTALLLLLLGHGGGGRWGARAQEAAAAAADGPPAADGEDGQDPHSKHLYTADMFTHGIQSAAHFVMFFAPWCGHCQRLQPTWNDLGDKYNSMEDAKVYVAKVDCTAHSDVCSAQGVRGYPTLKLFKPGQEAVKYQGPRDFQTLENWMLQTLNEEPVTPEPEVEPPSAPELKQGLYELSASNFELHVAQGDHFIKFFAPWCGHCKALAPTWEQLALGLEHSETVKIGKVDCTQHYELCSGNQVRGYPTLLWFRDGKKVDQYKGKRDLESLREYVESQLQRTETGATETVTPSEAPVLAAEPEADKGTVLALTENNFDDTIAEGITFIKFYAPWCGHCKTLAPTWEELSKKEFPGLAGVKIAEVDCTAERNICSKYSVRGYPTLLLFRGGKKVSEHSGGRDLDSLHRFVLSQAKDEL
UniProt Q9C0C9: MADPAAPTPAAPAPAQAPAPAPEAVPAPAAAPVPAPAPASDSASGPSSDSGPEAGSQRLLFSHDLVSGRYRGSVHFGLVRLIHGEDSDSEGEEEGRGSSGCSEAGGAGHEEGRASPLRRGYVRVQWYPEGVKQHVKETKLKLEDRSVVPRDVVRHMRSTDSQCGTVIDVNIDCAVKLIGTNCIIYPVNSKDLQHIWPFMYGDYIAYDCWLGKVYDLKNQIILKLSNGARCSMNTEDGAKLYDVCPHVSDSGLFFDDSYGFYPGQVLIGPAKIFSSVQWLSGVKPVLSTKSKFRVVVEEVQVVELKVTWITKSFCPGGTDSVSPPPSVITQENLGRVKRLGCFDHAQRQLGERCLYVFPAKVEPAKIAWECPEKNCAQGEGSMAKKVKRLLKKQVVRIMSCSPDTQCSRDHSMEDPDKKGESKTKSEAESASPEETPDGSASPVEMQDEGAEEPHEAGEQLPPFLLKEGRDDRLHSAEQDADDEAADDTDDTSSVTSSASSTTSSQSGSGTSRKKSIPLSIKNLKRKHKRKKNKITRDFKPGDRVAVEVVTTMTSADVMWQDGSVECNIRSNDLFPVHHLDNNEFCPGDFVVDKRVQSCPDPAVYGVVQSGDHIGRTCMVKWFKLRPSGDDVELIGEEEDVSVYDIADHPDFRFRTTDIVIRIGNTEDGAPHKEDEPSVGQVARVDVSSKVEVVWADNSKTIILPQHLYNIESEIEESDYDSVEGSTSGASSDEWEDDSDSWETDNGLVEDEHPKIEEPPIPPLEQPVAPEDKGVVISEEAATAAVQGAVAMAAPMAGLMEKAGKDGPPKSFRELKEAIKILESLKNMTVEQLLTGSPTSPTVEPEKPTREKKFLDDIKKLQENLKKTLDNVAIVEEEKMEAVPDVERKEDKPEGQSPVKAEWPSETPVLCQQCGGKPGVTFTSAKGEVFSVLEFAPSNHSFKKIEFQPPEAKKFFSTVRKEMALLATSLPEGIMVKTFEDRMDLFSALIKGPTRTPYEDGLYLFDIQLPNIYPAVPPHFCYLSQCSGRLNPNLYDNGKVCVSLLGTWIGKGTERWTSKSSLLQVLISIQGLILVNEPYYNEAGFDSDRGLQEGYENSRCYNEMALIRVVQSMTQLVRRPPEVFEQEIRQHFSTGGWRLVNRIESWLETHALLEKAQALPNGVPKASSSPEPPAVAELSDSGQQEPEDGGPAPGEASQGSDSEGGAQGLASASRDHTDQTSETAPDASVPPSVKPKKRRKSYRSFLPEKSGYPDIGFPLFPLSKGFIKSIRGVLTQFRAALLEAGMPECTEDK
UniProt Q15386: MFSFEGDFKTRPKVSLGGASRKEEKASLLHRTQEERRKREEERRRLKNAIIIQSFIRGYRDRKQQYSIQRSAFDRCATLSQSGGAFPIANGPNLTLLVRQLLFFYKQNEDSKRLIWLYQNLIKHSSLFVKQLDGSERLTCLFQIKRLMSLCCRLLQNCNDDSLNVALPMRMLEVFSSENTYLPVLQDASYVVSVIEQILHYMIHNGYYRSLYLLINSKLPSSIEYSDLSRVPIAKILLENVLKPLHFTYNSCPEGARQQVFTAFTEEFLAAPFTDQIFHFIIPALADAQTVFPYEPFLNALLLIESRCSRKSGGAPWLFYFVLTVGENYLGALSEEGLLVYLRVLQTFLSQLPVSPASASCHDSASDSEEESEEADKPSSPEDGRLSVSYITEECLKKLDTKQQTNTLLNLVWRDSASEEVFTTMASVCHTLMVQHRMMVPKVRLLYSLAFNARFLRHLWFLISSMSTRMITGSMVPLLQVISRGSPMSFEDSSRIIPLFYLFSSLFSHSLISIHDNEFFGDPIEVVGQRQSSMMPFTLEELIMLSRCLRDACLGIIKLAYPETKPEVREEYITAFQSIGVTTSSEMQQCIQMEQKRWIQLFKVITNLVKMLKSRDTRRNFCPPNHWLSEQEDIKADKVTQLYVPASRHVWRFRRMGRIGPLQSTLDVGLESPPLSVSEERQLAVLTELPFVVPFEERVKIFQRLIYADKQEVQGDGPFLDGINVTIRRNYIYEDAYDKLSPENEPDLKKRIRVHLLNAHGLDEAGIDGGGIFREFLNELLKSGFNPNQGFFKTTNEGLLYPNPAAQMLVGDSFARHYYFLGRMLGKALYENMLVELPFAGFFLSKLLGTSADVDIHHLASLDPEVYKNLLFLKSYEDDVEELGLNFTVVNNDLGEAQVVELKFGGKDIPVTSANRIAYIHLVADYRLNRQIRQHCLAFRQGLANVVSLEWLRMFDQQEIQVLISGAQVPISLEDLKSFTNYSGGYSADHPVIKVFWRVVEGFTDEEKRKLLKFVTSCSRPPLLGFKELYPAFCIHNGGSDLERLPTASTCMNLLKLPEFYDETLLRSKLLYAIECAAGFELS
UniProt Q5T6F2: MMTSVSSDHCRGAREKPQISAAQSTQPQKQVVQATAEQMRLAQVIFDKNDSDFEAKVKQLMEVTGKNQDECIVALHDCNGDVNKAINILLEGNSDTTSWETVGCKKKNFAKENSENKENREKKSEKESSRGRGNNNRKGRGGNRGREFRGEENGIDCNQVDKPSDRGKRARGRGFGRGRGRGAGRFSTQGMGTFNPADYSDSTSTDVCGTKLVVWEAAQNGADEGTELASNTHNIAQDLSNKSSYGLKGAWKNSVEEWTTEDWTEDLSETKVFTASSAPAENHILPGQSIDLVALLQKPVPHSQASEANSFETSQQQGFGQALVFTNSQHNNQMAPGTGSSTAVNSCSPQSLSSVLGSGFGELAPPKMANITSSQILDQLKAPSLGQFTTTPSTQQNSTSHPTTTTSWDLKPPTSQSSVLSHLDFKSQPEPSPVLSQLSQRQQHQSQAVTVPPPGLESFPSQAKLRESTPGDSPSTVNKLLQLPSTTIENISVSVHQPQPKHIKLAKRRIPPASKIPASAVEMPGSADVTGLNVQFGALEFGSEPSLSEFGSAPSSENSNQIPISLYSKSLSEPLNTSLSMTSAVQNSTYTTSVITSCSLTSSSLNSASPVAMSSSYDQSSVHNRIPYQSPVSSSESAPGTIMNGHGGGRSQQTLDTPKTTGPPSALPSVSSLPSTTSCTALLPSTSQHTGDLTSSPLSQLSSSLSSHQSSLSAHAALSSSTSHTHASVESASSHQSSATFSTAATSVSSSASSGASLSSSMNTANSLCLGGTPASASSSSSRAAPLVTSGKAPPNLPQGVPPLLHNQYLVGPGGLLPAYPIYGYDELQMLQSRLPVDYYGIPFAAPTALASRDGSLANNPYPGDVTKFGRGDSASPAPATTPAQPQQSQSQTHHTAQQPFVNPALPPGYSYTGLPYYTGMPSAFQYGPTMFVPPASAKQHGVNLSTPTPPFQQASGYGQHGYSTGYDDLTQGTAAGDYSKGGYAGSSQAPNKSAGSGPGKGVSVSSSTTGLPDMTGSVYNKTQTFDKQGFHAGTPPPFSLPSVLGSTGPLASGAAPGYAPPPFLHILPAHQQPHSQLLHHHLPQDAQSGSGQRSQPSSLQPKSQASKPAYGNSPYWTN
UniProt Q3KQV9: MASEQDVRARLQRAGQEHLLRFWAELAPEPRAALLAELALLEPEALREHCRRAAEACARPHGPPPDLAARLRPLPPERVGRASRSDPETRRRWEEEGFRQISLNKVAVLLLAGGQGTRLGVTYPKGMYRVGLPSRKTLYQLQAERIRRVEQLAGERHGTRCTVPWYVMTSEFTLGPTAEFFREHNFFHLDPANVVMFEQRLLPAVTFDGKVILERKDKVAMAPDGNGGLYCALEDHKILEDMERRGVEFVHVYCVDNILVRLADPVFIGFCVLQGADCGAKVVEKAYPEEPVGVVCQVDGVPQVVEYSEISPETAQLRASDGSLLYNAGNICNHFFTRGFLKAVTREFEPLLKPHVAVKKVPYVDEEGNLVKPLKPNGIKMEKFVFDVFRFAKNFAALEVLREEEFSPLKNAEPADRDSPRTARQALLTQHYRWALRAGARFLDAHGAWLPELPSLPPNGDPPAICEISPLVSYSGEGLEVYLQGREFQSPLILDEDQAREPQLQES

Consider 14 targets from the supplement of paper PMC12067093, “Discovery and optimisation of a covalent ligand for TRIM25 and its application to targeted protein ubiquitination” (Chemical Science, 2025).

Compound in this experiment: CC1Cc2ccccc2N1C(=O)C1CCCN(C1)C(=O)CCl (mixture of isomers) [TRIM25 ligand 11 (diastereomer mixture)]
Briefly: probe-labelled cysteine peptide fold change vs DMSO (competition) (log2 fold change); higher = less target engagement (more negative = stronger competition). Particulars: THP-1, incubation time: 4 h.
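Also: competitive chemoproteomic profiling in live THP-1 cells with an iodoacetamide desthiobiotin (IA-DTB) probe, comparing probe-labelled peptide intensities in compound-treated cells against DMSO-treated controls.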

For “UBE4A_Q14139_79_SQQEICEQLNINHMIQR (UniProt Q14139)”, the “probe-labelled cysteine peptide fold change” value (10 µM) was -0.0818 and the “probe-labelled cysteine peptide fold change” value (50 µM) is -0.101.
Taken in the same sequence, the figures for “UBN1_Q9NPG3_837_ASPTQCHR (UniProt Q9NPG3)” were -0.14 and -0.199.
The like results for “TYMP_P19971_293_CVGHALEVEEALLCMDGAGPPDLR (UniProt P19971)” were, in that order, 0.157 and 0.192.
Taken in the same sequence, the figures for “UBE3A_Q05086_198_AACSAAAMEEDSEASSSR (UniProt Q05086)” were -0.0145 and -0.123.
Regarding “UBA3_Q8TBC4_164_QFHIIVCGLDSIIAR (UniProt Q8TBC4)”, the “probe-labelled cysteine peptide fold change” value (10 µM) is -0.05 and the “probe-labelled cysteine peptide fold change” value (50 µM) came to 0.135.
For the target “TXNL1_O43396_135+149_AGCECLNESDEHGFDNCLR (UniProt O43396)”, the “probe-labelled cysteine peptide fold change” value reads like this: (10 µM) 0.0914; (50 µM) -0.234.
Taken in the same sequence, the figures for “UBA3_Q8TBC4_249_LPEHCIEYVR (UniProt Q8TBC4)” were -0.0187 and -0.0301.
For the target “UBR4_Q5T4S7_3872_CYGCASAVTEHCITLLR (UniProt Q5T4S7)”, the “probe-labelled cysteine peptide fold change” value runs as follows: (10 µM) 0.308; (50 µM) -0.0564.
In the case of “TYSND1_Q2T9J0_17_AAEQAGCMVSASR (UniProt Q2T9J0)”, the “probe-labelled cysteine peptide fold change” value is 0.116 (10 µM) and 0.0273 (50 µM).
Consider “TXNDC5_Q8NBS9_247+254_VDCTQHYELCSGNQVR (UniProt Q8NBS9)”, for which the “probe-labelled cysteine peptide fold change” value was -0.0441 (10 µM) and -0.16 (50 µM).
Regarding “UBE2O_Q9C0C9_375_NCAQGEGSMAK (UniProt Q9C0C9)”, the “probe-labelled cysteine peptide fold change” value (10 µM) is -0.114 and the “probe-labelled cysteine peptide fold change” value (50 µM) was -0.196.
The like results for “UBE3C_Q15386_252_ILLENVLKPLHFTYNSCPEGAR (UniProt Q15386)” were, in that order, 0.0355 and -0.385.
The like results for “UBAP2_Q5T6F2_71+78_NQDECIVALHDCNGDVNK (UniProt Q5T6F2)” were, in that order, -0.0411 and 0.0837.
Taken in the same sequence, the figures for “UAP1L1_Q3KQV9_50_AALLAELALLEPEALREHCR (UniProt Q3KQV9)” were 0.0804 and 0.0782.
